# From PubChem BioAssay AID1671190 (National Center for Advancing Translational Sciences (NCATS), 2021)
# Amino acid sequences for entries named in this document (tags omitted).
# UniProt P18054, whole entry, looked up: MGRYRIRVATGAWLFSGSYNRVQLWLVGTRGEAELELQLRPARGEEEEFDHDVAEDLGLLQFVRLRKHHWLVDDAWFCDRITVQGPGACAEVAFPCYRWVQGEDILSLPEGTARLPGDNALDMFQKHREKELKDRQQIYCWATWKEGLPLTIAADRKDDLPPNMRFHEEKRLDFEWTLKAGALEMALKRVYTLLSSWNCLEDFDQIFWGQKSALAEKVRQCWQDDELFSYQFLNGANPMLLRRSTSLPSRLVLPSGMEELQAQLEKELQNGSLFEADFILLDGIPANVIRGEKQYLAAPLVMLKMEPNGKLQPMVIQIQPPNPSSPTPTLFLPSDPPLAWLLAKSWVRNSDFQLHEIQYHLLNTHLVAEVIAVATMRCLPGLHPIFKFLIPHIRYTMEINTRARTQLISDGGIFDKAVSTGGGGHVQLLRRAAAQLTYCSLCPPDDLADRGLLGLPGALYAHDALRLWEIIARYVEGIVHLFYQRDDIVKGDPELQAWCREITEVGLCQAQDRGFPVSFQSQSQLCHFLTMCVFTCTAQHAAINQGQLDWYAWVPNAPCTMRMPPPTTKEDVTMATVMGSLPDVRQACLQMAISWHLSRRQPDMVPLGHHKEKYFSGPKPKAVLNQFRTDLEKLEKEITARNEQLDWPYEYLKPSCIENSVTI
# About 6,100 (1.1%) of roughly 580,000 compounds were called active. This list was built around the results that the source calls inconclusive (neither active nor inactive); the mix of calls is not that of the screen. The call rests on the fitted dose curve; in most records, active means well fitted inhibition curve with a large enough effect; inconclusive means small, poorly fitted or top-dose-only effect, or another doubt; inactive means no such curve, though single readings can be large or run the other way. Potencies of inconclusive entries are doubtful fits and often do not repeat.
# Molecular target: Polyunsaturated fatty acid lipoxygenase ALOX12 (Homo sapiens) (UniProt P18054)
# Assay: Primary qHTS assay for inhibitors of human arachidonate 12S-lipoxygenase (ALOX12): Round 2
# Conditions: purified 12hLO, xylenol orange hydroperoxide absorbance; activity change, negative = inhibition: at 108 µM (top of the series) unless noted
# In short: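 Purified human 12hLO at 150 nM in 25 mM Hepes, 0.01% Triton X-100, pH 7.0, preincubated 15 min at room temperature with compound. Reaction started with 40 uM arachidonic acid, 30 min at room temperature. Hydroperoxide measured by Fe-xylenol orange, 573/405 nm absorbance ratio.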
# On the % scale 0 is the no-effect control and ±100 the full control effect; potency means the concentration at half of the fitted maximal effect.
SMILES,Potency,"activity change, negative = inhibition"
Cc1cc(C)c2c(CC(=O)Nc3cccnc3)coc2c1,"inconclusive: 0.282 µM [inhibitor, full curve, poor fit]",–
COc1ccc(C(=O)N2CCC(N3C[C@H](O)C[C@H]3C(=O)NC3CCCCC3)CC2)c(OC)c1,inactive,–
CCN(CC)CCOC(=O)c1ccc(N/C=C(/C#N)c2nc(-c3ccc(OC)c(OC)c3)cs2)cc1,inactive,–
COc1ccc([N+](=O)[O-])c(S(=O)(=O)c2ccccc2)n1,inactive,–
Cc1cc(C(=O)NNS(=O)(=O)c2ccc(F)cc2)nn1C(C)(C)C,"inconclusive: 126 µM [inhibitor, single point]",–
CC(C)(C)CNC1(Cc2cc(-c3ccccn3)on2)COC1,"inconclusive: 5.62 µM [inhibitor, full curve, poor fit]",–
c1ccc(-c2ccccc2OCCOCCN2CCOCC2)cc1,"inconclusive: 0.251 µM [inhibitor, full curve, poor fit]",–
COc1ccc(/C=C/C(=O)OCCCC(c2ccc(F)cc2)c2ccc(F)cc2)cc1OC,inactive,–
O=C(Nc1ccccc1)O/N=C/c1ccc(F)cc1,inactive,–
O=C1C2CCCN2C(=S)N1c1cc(Cl)ccc1Cl (stereo not drawn),"inconclusive: 70.8 µM [inhibitor, partial curve, poor fit]",–
Cc1ccc2c(c1)-c1ncc(C(=O)c3cc(Br)ccc3O)cc1CO2,"inconclusive: 126 µM [inhibitor, partial curve, poor fit]",–
COc1ccc(Oc2ncc3ncc(=O)n(C4CC4)c3n2)cc1,"inconclusive: 79.4 µM [inhibitor, partial curve, poor fit]",–
CCN(CC)S(=O)(=O)c1ccc(N2CCOCC2)c(NS(=O)(=O)c2ccc(C)cc2)c1,inactive,–
Cc1ccccc1NS(=O)(=O)c1ccc2c3c(cccc13)C(=O)N2C,inactive,–
COC(=O)c1ccc(COC(=O)c2cc(-c3ccco3)nc3ccccc23)cc1,active: 7.08 µM,–
O=C(Cn1c(=O)cnc2ccccc21)Nc1ccccc1N1CCOCC1,"inconclusive: 89.1 µM [inhibitor, partial curve, poor fit]",–
COc1ccc(C)cc1NC(=O)CN1C(=O)COc2ccc(S(=O)(=O)NC3CCCC3)cc21,inactive,–
CCN(CC(=O)NC)S(=O)(=O)c1cccc2cc(C)cnc12,inactive,–
N#Cc1ccccc1CN1CCNc2nc(CNCc3ccc4c(c3)OCO4)n(Cc3ccccc3)c2C1=O,inactive,–
C#CCN(C[C@@H]1[C@@H](OC(=O)NCC2CCCCC2)[C@@H](OC(=O)NCC2CCCCC2)Cn2c(=O)ccc(=O)n21)S(=O)(=O)c1ccc(C)cc1,"inconclusive: 10 µM [inhibitor, partial curve, poor fit]",–
CCN(CC)CCSc1nc2ccccc2c(=S)n1-c1ccccc1,"inconclusive: 22.4 µM [inhibitor, partial curve, poor fit]",–
Cc1nn(-c2nnc(NCc3ccccc3)nn2)c(C)c1Br,"inconclusive: 100 µM [inhibitor, partial curve, poor fit]",–
COc1cccc(N2CC3(COCC2=O)CN(c2ccc(C(F)(F)F)cn2)C3)n1,"inconclusive: 56.2 µM [inhibitor, partial curve, poor fit]",–

SMILES,Potency,"activity change, negative = inhibition"
CN(C(=O)CCc1cccs1)C1CCCCC1,inactive,–
CN1CC(=O)N(C2CCNC2)Cc2c(NCc3ccccn3)ncnc21 (stereo not drawn),inactive,–
COc1ccccc1CNc1nc(-c2cccc(NS(C)(=O)=O)c2)nc2ccccc12,"inconclusive: 14.1 µM [inhibitor, partial curve, poor fit]",–
COc1cccc([S+](=O)([O-])N2CCC3(C2)NC(=O)c2ccccc2CO3)c1 (stereo not drawn),"inconclusive: 22.4 µM [inhibitor, full curve, poor fit]",–
O=C(c1cccc(F)c1)N1C[C@@H](CO)[C@H](c2nc(C3CC3)no2)C1,inactive,–
CCOC(=O)c1cc(S(=O)(=O)Nc2ccccc2OCC)[nH]n1,"inconclusive: 8.91 µM [inhibitor, full curve]",–
Cc1[nH]n(-c2ccc(C(=O)O)cc2)c(=O)c1CCO,"inconclusive: 89.1 µM [inhibitor, single point]",–
Cc1cccc(NS(=O)(=O)c2ccc3[nH]c(=O)oc3c2)c1C,"inconclusive: 126 µM [inhibitor, partial curve, poor fit]",–
Cc1ccccc1N1CCN(CC(O)Cn2c3ccccc3n3c(=O)cc(C)c(C#N)c23)CC1 (stereo not drawn),inactive,–
C1=C(CCNc2ncnc3c2[nH]c2ccccc23)CCCC1,"inconclusive: 100 µM [inhibitor, partial curve, poor fit]",–
Cc1ccc2c(CSc3nnc(NC4CC4)s3)cc(=O)oc2c1,"inconclusive: 50.1 µM [inhibitor, partial curve, poor fit]",–
CCOC(=O)c1sc(NC(=S)NC(=O)C2CC2)cc1C,inactive,–
CCOC(=O)N1CCN(C(=O)COc2ccc(S(=O)(=O)NC(C)C)cc2)CC1,inactive,–
C/C=C/Cn1c(SCCc2ccccc2)nc2c1c(=O)[nH]c(=O)n2C,"inconclusive: 50.1 µM [inhibitor, partial curve, poor fit]",–
Cc1[nH]n(-c2ccccc2)c(=O)c1N=Nc1ccc(C(=O)O)cc1,"inconclusive: 3.98 µM [inhibitor, full curve, poor fit]",–
O=C(c1ccc2c(c1)OCO2)N1CCCC2(CC(c3ccccc3)=NO2)C1 (stereo not drawn),"inconclusive: 79.4 µM [inhibitor, single point]",–
Cc1cccc(C)c1N1C(=O)C(CCc2ccccc2)N(C(=O)c2ccc(F)cc2)c2ccccc21 (stereo not drawn),inactive,–
CCCNC(=O)c1c(N)n(-c2cc(OC)cc(OC)c2)c2nc3ccccc3nc12,inactive,–
COc1cc(=O)n2c(c1C(=O)N(C)Cc1nonc1C)CCN(C(=O)c1cccc(C)c1C)CC2,inactive,–
COc1ccc(NC(=O)c2cc(=O)c3ccc(C)c(C)c3o2)cc1Cl,"inconclusive: 20 µM [inhibitor, partial curve, poor fit]",–
CCN(CC)CCC=C(c1cccs1)c1cccs1,active: 50.1 µM,–
CCOc1ccccc1Nc1nc(-c2cc3cccc(OC)c3oc2=O)cs1,"inconclusive: 0.562 µM [inhibitor, full curve, poor fit]",–
Cc1nc2cc(-c3ccccc3)ccc2s1,inactive,–

SMILES,Potency,"activity change, negative = inhibition"
CC(C)OP(=O)(c1ccc(N(C)C)cc1)C(O)c1ccc(N(C)C)cc1 (stereo not drawn),"inconclusive: 17.8 µM [inhibitor, full curve, poor fit]",–
COc1ccc(-n2nc(C3CCN([S+](=O)([O-])c4ccc(C)cc4)CC3)[nH]c2=O)cc1,"inconclusive: 39.8 µM [inhibitor, full curve, poor fit]",–
Brc1cccc(-c2nc3c4ccccc4ccn3c2Cc2ccsc2)c1,inactive,–
CCCCOc1cccc(CNCCCOCC)c1,"inconclusive: 0.447 µM [inhibitor, full curve, poor fit]",–
COc1ccc(-c2ccc(CCC(=O)O)n2-c2cc(Cl)ccc2O)cc1,"inconclusive: 31.6 µM [inhibitor, partial curve, poor fit]",–
CN(Cc1ccccc1)C(=O)COc1ccccc1Cl,inactive,–
COc1ccc(C(=O)C(C)Sc2nncn2-c2ccccc2OC)cc1 (stereo not drawn),"inconclusive: 44.7 µM [inhibitor, single point]",–
O=C(CN1CCCCCC1)N1CC(Oc2ccc(-c3noc(-c4ccccc4)n3)cc2)C1,"inconclusive: 100 µM [inhibitor, single point]",–
O=C(NCc1ccccc1)c1ccccc1CSc1nc2ccccc2o1,"inconclusive: 44.7 µM [inhibitor, partial curve]",–
COc1cccc(NC(=S)NCc2ccc3c(c2)cc(C)n3C)c1,"inconclusive: 50.1 µM [inhibitor, partial curve, poor fit]",–
COc1cccc(C2CC(=O)Nc3c2c(=O)n(C)c2nc4ccccc4n32)c1 (stereo not drawn),"inconclusive: 2.51 µM [inhibitor, full curve, poor fit]",–
CCCN(C(=O)Cc1coc2cc(C)c(C)cc12)c1c(N)n(Cc2ccccc2)c(=O)[nH]c1=O,inactive,–
O=C(Nc1ccc(Cl)cc1)c1cc(-c2ccc[nH]2)n[nH]1,"inconclusive: 11.2 µM [inhibitor, partial curve]",–
CCOc1ccccc1CNC(=O)c1noc(-c2ccc3c(c2)OCO3)n1,"inconclusive: 8.91 µM [inhibitor, full curve]",–
CCC(C)N(C)C(=O)c1cc2ccccc2c(-c2ccccc2Cl)n1 (stereo not drawn),"inconclusive: 21.7 µM [inhibitor, partial curve, poor fit]",–
Oc1ccc(Br)c(CN2CCN(c3ncc(Cc4ccccc4)cn3)CC2)c1,"inconclusive: 14.1 µM [inhibitor, partial curve, poor fit]",–
COc1cc(OC)c(Nc2nc3ccccc3nc2NS(=O)(=O)c2ccccc2)cc1Cl,inactive,–
Cc1ncc(COC(=O)C(C)C)c2cc(-c3nc(-c4ccccc4F)no3)c(=O)oc12,"inconclusive: 44.7 µM [inhibitor, partial curve, poor fit]",–
CCCc1nn(-c2cccc(F)c2)c(OC(C)=O)c1-c1ccc(NC(C)=O)cc1,"inconclusive: 8.91 µM [inhibitor, partial curve, poor fit]",–
O=C(NCCc1ccccc1)c1noc(-c2ccc3c(c2)OCO3)n1,"inconclusive: 8.91 µM [inhibitor, full curve]",–
Cc1ccc(-c2nc3ccccc3[nH]2)cc1NC(=O)c1sc2cc(Cl)ccc2c1Cl,–,inconclusive: -30.1% [inhibitor]
CN(C(=O)CSc1ncccc1C(=O)O)c1ccccc1,"inconclusive: 39.8 µM [inhibitor, partial curve, poor fit]",–

# Single records, from the list above. Values in the order: Potency	activity change, negative = inhibition
# CCCCOc1cccc(CNCCCOCC)c1 is listed with inconclusive: 0.447 µM [inhibitor, full curve, poor fit]	–
# CN(C(=O)CSc1ncccc1C(=O)O)c1ccccc1 is listed with inconclusive: 39.8 µM [inhibitor, partial curve, poor fit]	–
# COc1ccc(-c2ccc(CCC(=O)O)n2-c2cc(Cl)ccc2O)cc1 is listed with inconclusive: 31.6 µM [inhibitor, partial curve, poor fit]	–
